Results deposited as PubChem BioAssay AID743121 (NCATS, 2013).
Here is one part, drawn at random, of about 26,000 deposited reagents. 167 of them (0.63%) count as active. 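Calls are per gene from RSA p-values that are not deposited; an individual active-marked siRNA can sensitise only weakly.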 Entries without a mark were called inactive. Further read-outs or replicates are left out here. No sequences are given here.

Test: 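Partners whose loss is lethal together with topoisomerase I blockade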 (primary screen)
System: MDA-MB-231 cells, a human breast cancer line
Reagents: single siRNA against human genes, 20 nM siRNA (0.8 pmol per well)
Timing: 120 h (drug added 48 h after transfection, read 72 h later)
Challenge: camptothecin 20 nM (about EC30) for 72 h; vehicle 0.1% DMSO in parallel plates
Detection: 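CellTiter-Glo ATP signal, scaled to control siRNA as percent viability; sensitisation given as log2 of untreated divided by camptothecin-treated viability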
Direction: log2 vehicle/camptothecin viability: higher = stronger sensitisation to camptothecin; viability with camptothecin: higher = more viable cells
Active means: 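Each gene scored by redundant siRNA activity (RSA) over its individual siRNA ratios; a gene is called active at p < 0.001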

The first 5 entries, ahead of the listing:
| gene | PubChem SID | log2 vehicle/camptothecin viability | viability with camptothecin (% of control) |
| --- | --- | --- | --- |
| CDK2 | SID164357749 | -0.387 | 89.5 |
| CDK2 | SID164357754 | -0.113 | 88.5 |
| CDK2 | SID164357755 | -0.142 | 57.4 |
| CDK2 | SID164357757 | -0.239 | 107 |
| HRH1 | SID164369998 | -0.499 | 91.5 |

The listing, repeating the preview:
| gene | PubChem SID | log2 vehicle/camptothecin viability | viability with camptothecin (% of control) |
| --- | --- | --- | --- |
| CDK2 | SID164357749 | -0.387 | 89.5 |
| CDK2 | SID164357754 | -0.113 | 88.5 |
| CDK2 | SID164357755 | -0.142 | 57.4 |
| CDK2 | SID164357757 | -0.239 | 107 |
| HRH1 | SID164369998 | -0.499 | 91.5 |
| HRH1 | SID164369999 | 0.0673 | 37.6 |
| HRH1 | SID164370001 | -0.104 | 102 |
| HRH1 | SID164370002 | -0.0369 | 83.9 |
| DUS3L | SID164491835 | 0.116 | 35.1 |
| DUS3L | SID164491837 | -0.316 | 43.4 |
| DUS3L | SID164491839 | -0.404 | 90.8 |
| DUS3L | SID164491841 | -0.161 | 103 |
| CBS | SID164356828 | -0.304 | 42.7 |
| CBS | SID164356830 | -0.112 | 66.9 |
| CBS | SID164356831 | -0.196 | 39.4 |
| CBS | SID164356833 | -0.00752 | 63.7 |
| NAGLU | SID164377056 | -0.266 | 89.1 |
| NAGLU | SID164377057 | -0.792 | 72.2 |
| NAGLU | SID164377058 | -0.174 | 93.8 |
| NAGLU | SID164377059 | -0.375 | 74.4 |
| NPAS2 | SID164378292 | 0.289 | 67.2 |
| NPAS2 | SID164378293 | -0.0242 | 60.2 |
| NPAS2 | SID164378294 | -0.145 | 74.8 |
| NPAS2 | SID164378295 | -0.141 | 30.5 |
| PIK3CA | SID164380773 | -0.108 | 107 |
| PIK3CA | SID164380776 | 0.277 | 83.1 |
| PIK3CA | SID164380778 | 0.00998 | 107 |
| PIK3CA | SID164380781 | -0.35 | 72.3 |
| PPP1R14C | SID164538740 | 0.191 | 64.4 |
| PPP1R14C | SID164538741 | -0.139 | 68.5 |
| PPP1R14C | SID164538742 | -0.57 | 81 |
| PPP1R14C | SID164538744 | -0.0747 | 92.6 |
| ALDH1L2 | SID164578669 | -0.372 | 68.7 |
| ALDH1L2 | SID164578670 | -0.115 | 103 |
| ALDH1L2 | SID164578671 | -0.172 | 96.9 |
| ALDH1L2 | SID164578672 | -0.274 | 96 |
| BRCC3 | SID164531083 | 1.18 | 28.8 |
| BRCC3 | SID164531084 | 0.178 | 88.6 |
| BRCC3 | SID164531086 | -0.26 | 73.6 |
| BRCC3 | SID164531087 | 0.0782 | 89 |
| MADD | SID164398511 | -0.0666 | 98.3 |
| MADD | SID164398512 | -0.242 | 125 |
| MADD | SID164398513 | 0.108 | 107 |
| MADD | SID164398515 | -0.279 | 110 |
| TMPRSS3 | SID164503664 | -0.0232 | 91.4 |
| TMPRSS3 | SID164503665 | 0.461 | 6.4 |
| TMPRSS3 | SID164503666 | 0.295 | 63.8 |
| LZTS1 | SID164416125 | -0.392 | 52.8 |
| LZTS1 | SID164416126 | -0.178 | 64.6 |
| LZTS1 | SID164416127 | -0.207 | 81.5 |
| LZTS1 | SID164416128 | -1.41 | 98.3 |
| ITPR3 | SID164372167 | -0.288 | 58.7 |
| ITPR3 | SID164372168 | -0.152 | 94.7 |
| ITPR3 | SID164372169 | -0.758 | 76.9 |
| TIMP1 | SID164391841 | -0.171 | 94.3 |
| TIMP1 | SID164391844 | -0.474 | 96.1 |
| TIMP1 | SID164391846 | -0.0562 | 85.2 |
| KIF3C | SID164372656 | 0.289 | 74 |
| KIF3C | SID164372657 | 1.22 | 32.8 |
| KIF3C | SID164372658 | -0.25 | 78.7 |
| KIF3C | SID164372659 | -0.167 | 88 |
| LETMD1 | SID164457484 | 0.27 | 82.4 |
| LETMD1 | SID164457487 | 0.465 | 11.2 |
| LETMD1 | SID164457488 | 0.0777 | 110 |
| LETMD1 | SID164457489 | -0.165 | 112 |
| CCL1 | SID164387256 | -0.486 | 51.1 |
| CCL1 | SID164387257 | -0.173 | 78.1 |
| CCL1 | SID164387258 | -0.728 | 98 |
| CCL1 | SID164387259 | 0.614 | 37.6 |
